Results taken from US10829517B2, “Method for treating or/and preventing calcium deficiency-related diseases” (National Chung Hsing University, priority 2017, dated 2020).
Ends that are not written are not given here.

Test system: L-type potential-sensitive calcium channel

## COC(=O)C1=C(C)NC(C)=C(C(=O)OC)C1c1ccccc1[N+](=O)[O-] [nifedipine, reference compound]
  blocking of calcium ion entry into Caco-2 cells: cannot block the entry of calcium ions into Caco-2 cells

## TEVPAINTIASAEPTVH [SEQ ID No. 1, TEVPAINTIASAEPTVH]
  fluorescence intensity in Caco-2 cells after the peptide, between nifedipine groups: no significant difference
